The target in this test is Reticulon 3 (rat (endogenous in NRVCs)) (UniProt Q6RJR6). The experiment in a line: affinity purification with mass spectrometry; RTN3 immunoprecipitation from cardiomyocytes, LC-MS/MS; IgG immunoprecipitation as negative control.

By UniProt entry, the sequences of proteins in these tests, tags left out. Where a name states a change or a piece, a line headed by the entry shows the natural chain unless it says otherwise.
UniProt Q6RJR6: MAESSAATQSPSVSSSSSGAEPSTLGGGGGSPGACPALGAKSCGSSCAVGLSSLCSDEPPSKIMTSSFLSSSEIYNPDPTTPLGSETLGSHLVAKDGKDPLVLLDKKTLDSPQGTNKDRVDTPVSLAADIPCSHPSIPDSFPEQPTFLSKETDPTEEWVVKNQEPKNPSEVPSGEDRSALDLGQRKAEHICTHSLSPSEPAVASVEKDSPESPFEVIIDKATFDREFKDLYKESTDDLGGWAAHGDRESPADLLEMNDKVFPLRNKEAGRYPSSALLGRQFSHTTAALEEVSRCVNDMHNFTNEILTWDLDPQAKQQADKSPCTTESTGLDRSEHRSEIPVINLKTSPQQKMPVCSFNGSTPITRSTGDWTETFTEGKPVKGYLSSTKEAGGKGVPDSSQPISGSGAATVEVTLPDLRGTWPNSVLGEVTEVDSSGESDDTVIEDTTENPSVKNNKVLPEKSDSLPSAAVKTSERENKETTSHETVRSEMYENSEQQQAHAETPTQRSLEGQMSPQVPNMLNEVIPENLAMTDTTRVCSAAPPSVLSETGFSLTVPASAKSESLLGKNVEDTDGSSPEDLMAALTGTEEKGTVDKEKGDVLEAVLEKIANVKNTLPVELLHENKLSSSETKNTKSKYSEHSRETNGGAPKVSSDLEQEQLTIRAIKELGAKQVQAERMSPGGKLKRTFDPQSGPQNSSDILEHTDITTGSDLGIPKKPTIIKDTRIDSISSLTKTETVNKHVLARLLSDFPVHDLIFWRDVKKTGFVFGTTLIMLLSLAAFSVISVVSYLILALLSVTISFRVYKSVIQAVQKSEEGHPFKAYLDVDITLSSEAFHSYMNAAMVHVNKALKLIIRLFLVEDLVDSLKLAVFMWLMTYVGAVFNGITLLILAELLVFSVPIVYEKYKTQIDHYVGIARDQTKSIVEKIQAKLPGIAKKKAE

No constants are given. Whether binding was seen depends on the method and setting. Binding seen in cells or lysates may run through a third protein. These calls come from enrichment with a bait or labelling near it, and not all partners need be listed.

B1: Fatty Acid Binding Protein 5 (protein, UniProt P55053 1-135)
chain: MASLKDLEGKWRLVESHGFEDYMKELGVGLALRKMGAMAKPDCIITLDGNNLTVKTESTVKTTVFSCTLGEKFDETTADGRKTETVCTFTDGALVQHQKWEGKESTITRKLKDGKMVVECVMNNAICTRVYEKVQ
For the molecule B1, the binding result is “binds”.
